The target of assay [1] is T1, Flag-tagged DGCR8 (DiGeorge syndrome critical region 8) (UniProt Q8WYQ5).
T1 sequence: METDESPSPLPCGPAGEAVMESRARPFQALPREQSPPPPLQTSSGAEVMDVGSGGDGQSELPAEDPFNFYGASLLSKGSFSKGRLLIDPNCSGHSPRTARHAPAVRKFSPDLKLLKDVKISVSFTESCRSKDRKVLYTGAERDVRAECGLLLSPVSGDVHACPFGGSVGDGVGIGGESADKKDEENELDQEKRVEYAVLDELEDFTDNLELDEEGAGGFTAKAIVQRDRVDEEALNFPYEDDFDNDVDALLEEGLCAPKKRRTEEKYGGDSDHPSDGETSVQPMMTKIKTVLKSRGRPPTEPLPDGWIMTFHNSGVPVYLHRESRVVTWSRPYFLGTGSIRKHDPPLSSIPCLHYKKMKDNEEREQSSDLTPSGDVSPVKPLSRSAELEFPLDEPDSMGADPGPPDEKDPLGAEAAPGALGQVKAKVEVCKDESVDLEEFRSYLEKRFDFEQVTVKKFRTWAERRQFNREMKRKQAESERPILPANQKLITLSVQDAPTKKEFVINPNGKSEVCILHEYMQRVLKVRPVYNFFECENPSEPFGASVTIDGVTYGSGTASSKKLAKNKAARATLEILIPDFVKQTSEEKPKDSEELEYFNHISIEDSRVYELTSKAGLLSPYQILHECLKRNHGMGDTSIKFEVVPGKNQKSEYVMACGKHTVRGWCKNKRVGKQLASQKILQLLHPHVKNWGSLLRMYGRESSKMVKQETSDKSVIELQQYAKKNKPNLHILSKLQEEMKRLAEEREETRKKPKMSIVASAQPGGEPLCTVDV
The assay can be described thus: co-IP; exogenous Co-IP: HEK293T cells transfected with Flag-DGCR8, CHAPS lysis buffer (120 mM NaCl, 0.3% CHAPS, 1 mM EDTA, 40 mM HEPES pH 7.5), 4 °C overnight, blots of endogenous partners.

Amino acid sequences for entries named in this document (tags omitted).
UniProt P45973: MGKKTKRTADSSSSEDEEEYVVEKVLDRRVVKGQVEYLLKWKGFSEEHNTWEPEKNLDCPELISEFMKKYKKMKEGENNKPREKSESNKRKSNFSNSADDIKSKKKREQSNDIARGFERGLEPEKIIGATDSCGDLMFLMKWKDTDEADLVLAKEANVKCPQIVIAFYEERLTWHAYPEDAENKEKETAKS

In assay [2] the target is T2, endogenous DGCR8 protein in WT hMSCs (human (endogenous in hMSCs)) (UniProt Q8WYQ5).
T2 sequence: T1 sequence
The assay can be described thus: co-IP; endogenous Co-IP: WT hMSC lysate in CHAPS lysis buffer, pre-cleared, IP with an anti-DGCR8 antibody and Protein A/G-PLUS agarose beads overnight at 4 °C, blots of partners.

No constants are given. Whether binding was seen depends on the method and setting. In cells and extracts the contact can be indirect. Some entries that bind do so weakly or less than the wild type. For some assays here: Sequences can lack the tags named with a protein.

As to “HP1α (heterochromatin protein 1 alpha) (from UniProt P45973 1-191)”, the binding entry in assay [1] is listed as “binds”. Take “HP1α, endogenous in WT hMSCs (from UniProt P45973 1-191)”: the binding result in assay [2] was “binds”.

For the origin of these results see publication PMC6659673.
